No constants are given. Whether binding was seen depends on the method and setting. Binding seen in cells or lysates may run through a third protein. Some binding calls cover weakened binding; strength is not graded here.

Chains of the proteins cited; added tags and fusions are not shown.
UniProt A0A0G2K2P5: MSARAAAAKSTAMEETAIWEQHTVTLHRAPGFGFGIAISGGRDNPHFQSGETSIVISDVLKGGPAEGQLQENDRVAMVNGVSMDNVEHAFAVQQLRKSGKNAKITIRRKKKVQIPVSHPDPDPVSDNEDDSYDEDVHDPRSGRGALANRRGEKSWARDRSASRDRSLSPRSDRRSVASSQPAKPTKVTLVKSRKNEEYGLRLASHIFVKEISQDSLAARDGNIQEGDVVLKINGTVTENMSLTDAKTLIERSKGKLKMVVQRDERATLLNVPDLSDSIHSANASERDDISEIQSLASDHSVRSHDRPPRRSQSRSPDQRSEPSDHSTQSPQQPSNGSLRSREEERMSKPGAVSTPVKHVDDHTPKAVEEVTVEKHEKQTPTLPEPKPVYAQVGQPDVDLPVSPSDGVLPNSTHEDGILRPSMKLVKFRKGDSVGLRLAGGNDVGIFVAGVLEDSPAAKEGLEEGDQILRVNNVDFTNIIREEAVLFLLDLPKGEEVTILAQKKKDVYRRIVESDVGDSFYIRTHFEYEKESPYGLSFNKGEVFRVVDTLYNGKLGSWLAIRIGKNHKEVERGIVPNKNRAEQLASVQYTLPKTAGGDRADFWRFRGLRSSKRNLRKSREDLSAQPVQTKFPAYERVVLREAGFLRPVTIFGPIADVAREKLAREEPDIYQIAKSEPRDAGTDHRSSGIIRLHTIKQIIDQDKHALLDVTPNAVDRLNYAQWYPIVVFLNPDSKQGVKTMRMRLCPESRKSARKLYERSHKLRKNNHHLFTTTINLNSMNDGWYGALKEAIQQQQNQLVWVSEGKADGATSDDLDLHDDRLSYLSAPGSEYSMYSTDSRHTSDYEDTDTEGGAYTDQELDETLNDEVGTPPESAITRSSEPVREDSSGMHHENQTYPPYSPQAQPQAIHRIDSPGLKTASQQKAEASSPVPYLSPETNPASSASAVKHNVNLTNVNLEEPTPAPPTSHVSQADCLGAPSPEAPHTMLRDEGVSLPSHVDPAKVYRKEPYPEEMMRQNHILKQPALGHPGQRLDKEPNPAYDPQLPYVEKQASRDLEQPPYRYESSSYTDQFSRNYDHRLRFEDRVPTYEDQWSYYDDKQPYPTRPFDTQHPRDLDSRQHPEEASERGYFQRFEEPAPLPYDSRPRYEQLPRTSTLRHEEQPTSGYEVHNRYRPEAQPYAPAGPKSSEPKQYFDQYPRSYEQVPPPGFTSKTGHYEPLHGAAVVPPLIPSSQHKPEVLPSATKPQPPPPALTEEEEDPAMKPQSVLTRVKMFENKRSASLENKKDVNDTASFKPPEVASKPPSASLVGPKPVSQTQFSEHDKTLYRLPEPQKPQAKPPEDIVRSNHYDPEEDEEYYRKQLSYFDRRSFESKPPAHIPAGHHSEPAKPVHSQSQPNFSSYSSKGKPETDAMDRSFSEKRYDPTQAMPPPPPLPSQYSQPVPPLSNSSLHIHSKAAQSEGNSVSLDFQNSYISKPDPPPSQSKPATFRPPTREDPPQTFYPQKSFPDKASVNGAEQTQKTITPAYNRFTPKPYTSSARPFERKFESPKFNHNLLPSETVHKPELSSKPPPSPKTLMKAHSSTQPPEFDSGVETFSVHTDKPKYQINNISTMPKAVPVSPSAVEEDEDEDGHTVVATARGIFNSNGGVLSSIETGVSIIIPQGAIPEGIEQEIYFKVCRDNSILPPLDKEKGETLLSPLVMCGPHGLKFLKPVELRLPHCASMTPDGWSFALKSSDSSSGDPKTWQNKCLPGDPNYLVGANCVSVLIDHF

The target of the test is T1, heat-shock protein APG2 (rat (endogenous in IEC-6)) (UniProt O88600).
T1 sequence: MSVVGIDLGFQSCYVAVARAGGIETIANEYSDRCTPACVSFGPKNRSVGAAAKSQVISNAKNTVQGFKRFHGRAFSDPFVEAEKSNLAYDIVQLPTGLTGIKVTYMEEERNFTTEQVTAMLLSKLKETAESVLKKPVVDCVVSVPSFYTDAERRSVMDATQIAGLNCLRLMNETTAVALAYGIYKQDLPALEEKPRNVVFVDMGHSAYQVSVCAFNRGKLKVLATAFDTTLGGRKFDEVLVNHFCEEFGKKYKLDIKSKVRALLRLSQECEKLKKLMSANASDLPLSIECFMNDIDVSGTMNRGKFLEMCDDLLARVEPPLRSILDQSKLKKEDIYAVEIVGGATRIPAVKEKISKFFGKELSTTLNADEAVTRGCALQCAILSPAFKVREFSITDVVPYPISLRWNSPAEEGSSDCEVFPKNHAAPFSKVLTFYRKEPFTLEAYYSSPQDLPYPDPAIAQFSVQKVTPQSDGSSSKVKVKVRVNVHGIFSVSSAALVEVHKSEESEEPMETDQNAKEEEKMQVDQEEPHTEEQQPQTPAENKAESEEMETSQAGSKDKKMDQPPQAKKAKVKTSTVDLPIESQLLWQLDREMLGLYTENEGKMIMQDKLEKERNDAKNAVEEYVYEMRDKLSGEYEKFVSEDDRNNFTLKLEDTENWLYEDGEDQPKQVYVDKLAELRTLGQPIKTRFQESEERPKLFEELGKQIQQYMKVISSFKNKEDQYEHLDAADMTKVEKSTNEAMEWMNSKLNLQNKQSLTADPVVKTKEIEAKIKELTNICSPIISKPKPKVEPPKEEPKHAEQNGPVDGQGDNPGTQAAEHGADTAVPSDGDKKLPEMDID
In words: co-IP; IEC-6 lysate (1% NP40, 20 mM Tris, 150 mM NaCl, 2 mM EDTA, pH 7.4); IP antibody on protein G Sepharose, 500 ug protein extract, 1 h; western blot; cells with or without dexamethasone and/or SP-D; each protein in turn as bait. In general terms: In western blotting, separated proteins are transferred to a membrane and probed.

As for “Zonula occludens-1 (from UniProt A0A0G2K2P5 1-1765)”, the binding entry is on record as “binds”.

Values taken from paper PMC8566228.
